PubChem BioAssay AID1159578 – Peter MacCallum Cancer Centre | 2015

Assay: 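Genome-wide hunt for genes controlling movement of lymphatic endothelial cells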 (primary screen)
System: human lymphatic endothelial cells
Knock-down reagent: siRNA pool against human genes, 40 nM
Time to read-out: 48 h after transfection
Measured: 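High-content imaging of dye-stained cells in a scratch assay measures filled wound area and nuclei per well; duplicate means given as ratio to mock and robust z-score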
Reading the numbers: migration robust z-score: higher = faster migration into the scratch; nuclei per well: higher = more cells in the well
Hit rule: 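Pools averaging fewer than 3300 nuclei are never called; remaining pools count as changed when migration robust z lies outside -2 to 2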
Calls: active = migration changed; inactive = no migration change, or too few cells
Here is a random part of about 18,000 reagents tested. Of all reagents, about 1,030 (5.7%) were called active. 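Inactive calls also include pools with fewer than 3300 nuclei, whose migration was not assessed.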 Raw values are not corrected between plates. Unmarked entries are inactive. Further read-outs or replicates are left out here.

ARHGEF7
- migration robust z-score: -0.32
- nuclei per well, duplicate mean: 5032

C2orf69
- migration robust z-score: -3.25
- nuclei per well, duplicate mean: 2903

GIGYF1
- migration robust z-score: -0.15
- nuclei per well, duplicate mean: 5816

NDRG3
- migration robust z-score: -0.16
- nuclei per well, duplicate mean: 5754

GPD2
- migration robust z-score: 0.2
- nuclei per well, duplicate mean: 6581

SNTA1
- migration robust z-score: 1.01
- nuclei per well, duplicate mean: 4816

ZNF648
- migration robust z-score: 1.19
- nuclei per well, duplicate mean: 5562

UPK1A
- migration robust z-score: 0.22
- nuclei per well, duplicate mean: 5408

SSX3
- migration robust z-score: 0
- nuclei per well, duplicate mean: 5277

2 entries from above in another layout.
{"gene symbol":"GIGYF1","migration robust z-score":-0.15,"nuclei per well, duplicate mean":5816}
{"gene symbol":"NDRG3","migration robust z-score":-0.16,"nuclei per well, duplicate mean":5754}

The listing continues:
FCRL2
- migration robust z-score: -3.71 (active)
- nuclei per well, duplicate mean: 5620

ZNF92
- migration robust z-score: 0.51
- nuclei per well, duplicate mean: 5436

CT45A5
- migration robust z-score: 0.66
- nuclei per well, duplicate mean: 6090

CD300E
- migration robust z-score: -2.02 (active)
- nuclei per well, duplicate mean: 6248

DNAH12
- migration robust z-score: 0.82
- nuclei per well, duplicate mean: 7894
